{"source": "PubChem BioAssay AID652259 | Drosophila RNAi Screening Center – 2013", "purpose": "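Genome-wide hunt for genes that control Wingless pathway activity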 (primary screen)", "system": "Drosophila clone 8 imaginal disc epithelial cells", "reagents": "long dsRNA against Drosophila genes", "treatment": "pathway stimulated by co-transfected Wingless expression plasmid", "measurement": "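Dual luciferase reads per well after Wingless plasmid stimulation: reporter firefly light and Renilla control light; activity is firefly divided by Renilla, a ratio not deposited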", "reading the numbers": "firefly reporter light: higher = more Wg reporter light, before normalisation; Renilla control light: higher = more transfected or surviving cells", "rule for the call": "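a knock-down is a candidate when at least two out of four statistical tests show it departing from its plate mean; one test alone signals a weak candidate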", "meaning of the calls": "active = candidate regulator (raises or lowers reporter); inactive = not a candidate", "note": "In all, the deposit lists about 22,000 reagents; this is a random part of those that have a named target and a result. In the full data, 233 (1.1%) are marked active. 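Light values are raw, unnormalised plate reads; the ratio scores behind the reporter calls were not deposited.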 Reagents against one gene are numbered here. A plus sign joins genes that one reagent is predicted to hit. No sequences are given here. The record does not give: the amount of reagent, the time to read-out, the dose of the treatment."}
{"target gene": "COX6AL2 + Ir75d", "reagent no.": 1, "firefly reporter light, replicate 1": 9565, "Renilla control light, replicate 1": 2514, "Call": "inactive"}
{"target gene": "CG5391", "reagent no.": 1, "firefly reporter light, replicate 1": 38643, "Renilla control light, replicate 1": 6673, "Call": "inactive"}
{"target gene": "Prx6a", "reagent no.": 1, "firefly reporter light, replicate 1": 15584, "Renilla control light, replicate 1": 5640, "Call": "inactive"}
{"target gene": "CG34444", "reagent no.": 1, "firefly reporter light, replicate 1": 4969, "Renilla control light, replicate 1": 1559, "Call": "inactive"}
{"target gene": "Rab9Db + Rab9Fa", "reagent no.": 1, "firefly reporter light, replicate 1": 13296, "Renilla control light, replicate 1": 8408, "Call": "inactive"}
{"target gene": "CG5611", "reagent no.": 1, "firefly reporter light, replicate 1": 5685, "Renilla control light, replicate 1": 2960, "Call": "inactive"}
{"target gene": "CG3285", "reagent no.": 1, "firefly reporter light, replicate 1": 12792, "Renilla control light, replicate 1": 5592, "Call": "inactive"}
{"target gene": "CkIIalpha", "reagent no.": 1, "firefly reporter light, replicate 1": 7681, "Renilla control light, replicate 1": 3159, "Call": "inactive"}
{"target gene": "CG31789", "reagent no.": 1, "firefly reporter light, replicate 1": 15131, "Renilla control light, replicate 1": 6135, "Call": "inactive"}
{"target gene": "PCB", "reagent no.": 1, "firefly reporter light, replicate 1": 8544, "Renilla control light, replicate 1": 1451, "Call": "inactive"}
{"target gene": "CG14937", "reagent no.": 1, "firefly reporter light, replicate 1": 2200, "firefly reporter light, replicate 2": 5782, "Renilla control light, replicate 1": 1048, "Renilla control light, replicate 2": 2788, "Call": "inactive"}
{"target gene": "CG18507", "reagent no.": 1, "firefly reporter light, replicate 1": 19047, "Renilla control light, replicate 1": 9571, "Call": "inactive"}
{"target gene": "CG18507", "reagent no.": 2, "firefly reporter light, replicate 1": 3925, "firefly reporter light, replicate 2": 8873, "Renilla control light, replicate 1": 1602, "Renilla control light, replicate 2": 4105, "Call": "inactive"}

No new results follow: an excerpt of the list.
{"target gene": "CG31789", "reagent no.": 1, "firefly reporter light, replicate 1": 15131, "Renilla control light, replicate 1": 6135, "Call": "inactive"}
{"target gene": "PCB", "reagent no.": 1, "firefly reporter light, replicate 1": 8544, "Renilla control light, replicate 1": 1451, "Call": "inactive"}
